Values after ≈ are worked out from the molar mass of the structure shown.

This data set is described as follows: physchem. To be noted: thermodynamic from solid.

For `C(=C\c1ccccc1)/CN1CCN(C(c2ccccc2)c2ccccc2)CC1` [Cinnarizine, cinnarizine], the solubility (thermodynamic) at 72 h runs as follows: (simulated gastric fluid) 2100 µg/mL (≈ 5700 µM); (water) 0.9 µg/mL (≈ 2.44 µM).

A word on the thermodynamic solubility: it is the concentration in solution at equilibrium with solid.

(Values after patent US10610487B2, “Salts of active ingredients with polymeric counterions” (BASF SE, priority 2015, dated 2020).)
